# Data reported in patent US20080319079A1, “Method for Administering Formoterol Using a Nebulizer” (priority 2006, published 2008).
# Read-outs that look alike come from different tables or passages of the source.
# Legend:
# [1] = in 2 to 3 ml of water, normal saline, ipotropium bromide solution or budesonide solution
# [2] = system: patients with reversible obstructive respiratory diseases; conditions: cited from earlier work; for duration of action (bronchodilation): patients with asthma and related respiratory illnesses, inhalation
structure (smiles),measurement,setting,value
"COc1ccc(CC(C)NCC(O)c2ccc(O)c(NC=O)c2)cc1 (stereo not shown) [formoterol, N-[2-hydroxy-5-(1-hydroxy-2-((2-(4-methoxyphenyl)-1-methylethyl)-amino)-ethyl)phenyl]formamide]",dissolution of unit dose,[1],dissolves instantly
same,onset of action,[2]; after inhalation,1 to 3 min
same,duration of action (bronchodilation),[2],≥ 12 h
same,duration of action (bronchodilation),[2]; listed as Formoterol,up to 12 hours
